Paper PMC6333334
Results are given in words; binding and its absence hold for the method and conditions named. Some binding calls cover weakened binding; strength is not graded here.

Target: T1, Drosophila Crumbs bait: C-terminal-most extracellular EGF-like repeat, transmembrane domain and cytoplasmic tail (aa 2034-2189), STE2-Crb-Cub-LexA-VP16 (Drosophila melanogaster) (UniProt P10040)
T1 sequence: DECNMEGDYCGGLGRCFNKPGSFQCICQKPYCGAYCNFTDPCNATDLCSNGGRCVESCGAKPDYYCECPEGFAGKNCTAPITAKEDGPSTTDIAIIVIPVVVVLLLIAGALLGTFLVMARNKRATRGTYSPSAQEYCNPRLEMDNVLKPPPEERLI
Experiment: two-hybrid; modified membrane yeast two-hybrid (MBmate, split ubiquitin): bait STE2-Crb-Cub-LexA-VP16, prey NubG-x from a Drosophila embryo library; screen and 1-by-1 test with two independent clones; growth on medium without tryptophan, leucine and histidine, with 3-AT

B1: Apnoia (CG15887), full-length prey clone of the NubG-x library (protein, UniProt Q9VFX3 1-137)
chain: MAANQKIVFALVCLFLACDLVLGQQQAANSSDSDSDVAESRTFGHHFLRRISFALVPGAFVVGVITTLLAALTVVSIKGLGVGVILLVLAIGQMLSRALPVQAAAAYAAAPVPVQAPVPVVYSHSHTQQPVWLEKEW
In the case of B1, the binding is reported as “binds”.
